The text below walks through data of PubChem BioAssay AID212 (DTP/NCI, 2004).

The subject of this test is BDF1 mice, colon carcinoma 38 sc, T/C %. The experiment in a line: NCI In Vivo Anticancer Drug Screen. Data for tumor model Colon Carcinoma 38 (subcutaneous) in B6D2F1 (BDF1) mice. As to conditions: T/C endpoint: median tumor weight (est.), higher T/C = larger tumour; for T/C: evaluated on day 20. The method in brief:
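T/C readout: treated group (T) measurement over vehicle control group (C) measurement. Endpoint is survival or tumor size in mice bearing a transplanted tumor.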

Where [1] appears, read: dose: 200.0 mg/kg/injection, schedule: Q07DX002 (ip), vehicle: Klucel (hydroxypropylcellulose) (HPC).
[2] abbreviates: dose: 400.0 mg/kg/injection, schedule: Q07DX002 (ip), vehicle: saline with Tween-80.
Where [3] appears, read: dose: 100.0 mg/kg/injection, schedule: Q07DX002 (ip), vehicle: saline with Tween-80.
[4] abbreviates: dose: 50.0 mg/kg/injection, schedule: Q07DX002 (ip), vehicle: saline with Tween-80.
The mark [5] stands for this setting: dose: 25.0 mg/kg/injection, schedule: Q07DX002 (ip), vehicle: saline with Tween-80.
[6] abbreviates: dose: 6.25 mg/kg/injection, schedule: Q07DX002 (ip), vehicle: saline.
The mark [7] stands for this setting: dose: 12.5 mg/kg/injection, schedule: Q07DX002 (ip), vehicle: saline with Tween-80.
Where [8] appears, read: dose: 200.0 mg/kg/injection, schedule: Q07DX002 (ip), vehicle: saline.

Molecules are shown by their SMILES. The list does not hold the whole screen: it is rich in T/C values a quarter to a half above the control, in often repeated tests (any T/C) and in doses without a T/C. Further doses and runs are listed elsewhere. T/C is the treated group as % of the vehicle group. Schedule codes are those of the source, read here as Q, the interval in days (D) or hours (H), X, the number of doses. Some T/C values carry the count of animals alive at the toxicity check (mostly the fifth day); without a count, all were alive then. Some doses have a count of surviving animals in place of a T/C: the source files T/C as zero there, which appears to mark a toxic dose or a test without result, not a measured value. Survivors were counted at the toxicity check, usually on the fifth day, unless a day is given; later deaths do not show. Some entries hold several experiments; the results are listed from low to high.

As to `CCc1nc(N)nc(N)c1-c1ccc(Cl)c(N=[N+]=[N-])c1`, the survivor count (dose: 800.0 mg/kg/injection, schedule: Q07DX002 (ip), vehicle: distilled water + Tween-80) is given as 6 of 10 on day 20.

In the case of `CC1=C/C(O)CC(=O)Cc2nc(co2)C(=O)N2CCC=C2C(=O)OC(C(C)C)C(C)/C=C\C(=O)NC/C=C\1` (centres undefined), the T/C was 127 % of control (dose: 100.0 mg/kg/injection, schedule: Q07DX002 (ip), vehicle: Klucel (hydroxypropylcellulose) (HPC)) and 128 % of control [9 of 10 alive on day 20] under setting [1].

With `O=c1[nH]cnc2c1ccn2C1OC(CO)C(O)C1O` (centres undefined), under “dose: 48.0 mg/kg/injection, schedule: Q07DX002 (ip), vehicle: saline”, the survivor count is listed as 0 of 10 on day 20.

In the case of `CC1(c2ccc(Cl)cc2)OC(=O)C(=Cc2ccc([N+](=O)[O-])s2)C(=O)O1` (centres undefined), the survivor count under setting [2] is reported as 2 of 10 on day 20.

On to `O/N=C/c1ccccc1O.O/N=C/c1ccccc1O.[Cu]`, for which, under setting [3], the survivor count was 2 of 10 on day 20 and 6 of 10 on day 20.

Regarding `FC(F)(F)c1nc2nc(Cl)c(Cl)nc2[nH]1`, the T/C under setting [4] was 125 % of control [9 of 10 alive on day 20]. Further, the survivor count under setting [3] was 4 of 10 on day 20; the survivor count (dose: 200.0 mg/kg/injection, schedule: Q07DX002 (ip), vehicle: saline with Tween-80) is given as 1 of 10 on day 20; the survivor count under setting [2] is listed as 0 of 10 on day 20.

`CC(C)[C@]12O[C@H]1[C@@H]1O[C@]13[C@]1(O[C@H]1C[C@H]1C4=C(C(=O)OC4)[C@@H](O)C[C@@]13C)[C@@H]2O`: where the note is “dose: 50.0 micrograms/kg/injection, schedule: Q07DX002 (ip), vehicle: saline + alcohol”, the T/C is 129 % of control [8 of 10 alive on day 20]. Also, the survivor count (dose: 800.0 micrograms/kg/injection, schedule: Q07DX002 (ip), vehicle: saline + alcohol) is recorded as 4 of 10 on day 20.

With `C[C@@H]1C[C@@H]([C@H](O)CC2CC(=O)NC(=O)C2)C(=O)[C@@H](C)C1`, the T/C under setting [5] was 125 % of control [9 of 10 alive on day 20]. Besides, under setting [2], the survivor count was 1 of 10 on day 20.

Turning to `CC(=O)OCC1OC(n2cc(CBr)nn2)C(OC(C)=O)C(OC(C)=O)C1OC(C)=O` (centres undefined), under “dose: 50.0 mg/kg/injection, schedule: Q07DX003 (ip), vehicle: Klucel (hydroxypropylcellulose) (HPC)”, the T/C was 128 % of control.

Turning to `ClC1=C(Cl)C(Cl)=C(Cl)C1=Cc1ccccc1`, for the setting “dose: 3.12 mg/kg/injection, schedule: Q07DX002 (ip), vehicle: saline with Tween-80”, the T/C is 127 % of control.

For the compound `Cc1ccc(S(=O)(=O)NC(=O)C2C(=O)CC3(CCCCC3)CC2=O)cc1`, the survivor count (dose: 800.0 mg/kg/injection, schedule: Q07DX002 (ip), vehicle: Klucel (hydroxypropylcellulose) (HPC)) is listed as 5 of 10 on day 20.

For the compound `CCN(CC)CCCC(C)Nc1c2ccc(Cl)cc2nc2ccc(OC)cc12` (centres undefined), the T/C (dose: 64.0 mg/kg/injection, schedule: Q07DX003 (ip), vehicle: suspension in saline) was 128 % of control.

Regarding `C1OC1CN1CCN(CC2CO2)CC1` (centres undefined), under setting [6], the T/C is 135 % of control.

Take `CCC1=C[C@H]2CN(CCc3c([nH]c4ccccc34)[C@@](C(=O)OC)(c3cc4c(cc3OC)N(C)[C@H]3[C@@](O)(C(=O)OC)[C@H](OC(C)=O)[C@]5(CC)C=CCN6CC[C@]43[C@@H]65)C2)C1`: the T/C (dose: 1.0 mg/kg/injection, schedule: Q07DX002 (ip), vehicle: water) was 130 % of control and the T/C (dose: 4.0 mg/kg/injection, schedule: Q07DX002 (ip), vehicle: water) was 125 % of control. For the same compound, the survivor count (dose: 16.0 mg/kg/injection, schedule: Q07DX002 (ip), vehicle: water) is on record as 2 of 10 on day 20.

In the case of `CCOC(=O)C(CC(C)C)NC(=O)C(N)Cc1ccc(N(CCCl)CCCl)cc1` (centres undefined), the survivor count reads like this: (dose: 40.0 mg/kg/injection, schedule: Q07DX002 (ip), vehicle: saline) 6 of 10 on day 20; (dose: 40.0 mg/kg/injection, schedule: Q07DX002 (ip), vehicle: water) 2 of 10 on day 20; (dose: 80.0 mg/kg/injection, schedule: Q07DX002 (ip), vehicle: saline) 0 of 10 on day 20; (dose: 80.0 mg/kg/injection, schedule: Q07DX002 (ip), vehicle: water) 0 of 10 on day 20; (dose: 160.0 mg/kg/injection, schedule: Q07DX002 (ip), vehicle: saline) 0 of 10 on day 20; (dose: 160.0 mg/kg/injection, schedule: Q07DX002 (ip), vehicle: water) 0 of 10 on day 20.

Regarding `Cn1/c2cc/c1=C(\c1ccc(S(=O)(=O)O)cc1)c1ccc([n-]1)/C(c1ccc(S(=O)(=O)O)cc1)=c1/cc/c([nH]1)=C(\c1ccc(S(=O)(=O)O)cc1)c1ccc([n-]1)/C=2c1ccc(S(=O)(=O)O)cc1.O.O=S(=O)(O)C(F)(F)F.[Cu+2]`, the survivor count (dose: 400.0 mg/kg/injection, schedule: Q07DX002 (ip), vehicle: saline) is recorded as 3 of 10 on day 20.

As for `Cc1cc2nc3[nH]c4ccccc4c3nc2cc1C`, the T/C (dose: 25.0 mg/kg/injection, schedule: Q07DX002 (ip), vehicle: Klucel (hydroxypropylcellulose) (HPC)) was 144 % of control.

As for `NC(=O)c1ccc[n+](Cc2c(Cl)cccc2Cl)c1`, the T/C under setting [6] is 134 % of control.

As to `CCCCCCC(=O)/C=C/c1cccc(OCOCC)c1`, the T/C under setting [5] is 138 % of control [9 of 10 alive].

Take `CNc1nc(NC)nc(NC)n1`: the T/C (dose: 25.0 mg/kg/injection, schedule: Q07DX003 (ip), vehicle: Klucel (hydroxypropylcellulose) (HPC)) is 147 % of control [9 of 10 alive].

Turning to `Ic1ncnc2c1ncn2C1CCCO1` (centres undefined), under setting [1], the T/C is 132 % of control. Moreover, the survivor count (dose: 400.0 mg/kg/injection, schedule: Q07DX002 (ip), vehicle: Klucel (hydroxypropylcellulose) (HPC)) is 5 of 10 on day 20.

On to `COC(=O)C(F)C(Br)C(=O)OC` (centres undefined), for which the T/C under setting [7] is 134 % of control [9 of 10 alive].

`COC(=Nc1ccccc1)SSC(C)C`: under setting [7], the T/C is 126 % of control.

`Cc1c(N)nc(C(CC(N)=O)NCC(N)C(N)=O)nc1C(=O)NC(C(=O)NC(C)C(O)C(C)C(=O)NC(C(=O)NCCc1nc(-c2nc(C(=O)NCCCNCCCc3ccccn3)cs2)cs1)C(C)O)C(OC1OC(CO)C(O)C(O)C1OC1OC(CO)C(O)C(OC(N)=O)C1O)c1cnc[nH]1` (centres undefined): under setting [8], the survivor count is 0 of 10 on day 20.

In the case of `CCCCCCCC(=O)OCC(=O)[C@]1(O)Cc2c(O)c3c(c(O)c2[C@@H](OC2CC(N)C(O)C(C)O2)C1)C(=O)c1c(OC)cccc1C3=O` (some centres undefined), the survivor count is 6 of 10 on day 20 (dose: 16.0 mg/kg/injection, schedule: Q07DX002 (ip), vehicle: suspension in saline) and 0 of 10 on day 20 (dose: 32.0 mg/kg/injection, schedule: Q07DX002 (ip), vehicle: suspension in saline).

As to `CC(=O)CC(c1ccccc1)c1c(O)c2ccccc2oc1=O` (centres undefined), the T/C by setting is: (dose: 0.22 mg/kg/injection, schedule: Q07DX002 (ip), vehicle: saline with Tween-80) 125 % of control; (dose: 1.8 mg/kg/injection, schedule: Q07DX002 (ip), vehicle: saline with Tween-80) 136 % of control; (dose: 3.6 mg/kg/injection, schedule: Q07DX002 (ip), vehicle: saline with Tween-80) 130 % of control.

As for `COc1cccc(-c2cc(=O)c3cccc(CC(=O)O)c3o2)c1`, the survivor count under setting [8] was 0 of 5 on day 20.

For `CC[C@H]1CN2CCc3cc(OC)c(OC)cc3[C@@H]2C[C@@H]1C[C@H]1NCCc2cc(OC)c(OC)cc21`, for the setting “dose: 56.0 mg/kg/injection, schedule: Q07DX002 (ip), vehicle: saline”, the survivor count was 2 of 10 on day 20.

For the compound `Cc1cc(O)c2c(c1O)C(=O)C13C(=C2O)C(=O)C2C(O)C1C1C(O)C3C(=O)C3=C(O)c4c(O)cc(C)c(O)c4C(=O)C321` (centres undefined), the survivor count runs as follows: under setting [7], 5 of 10 on day 20; under setting [5], 5 of 10 on day 20; under setting [4], 1 of 10 on day 20; under setting [3], 0 of 10 on day 20.
